Results from paper PMC11769810.
Results are given in words; binding and its absence hold for the method and conditions named. In cells and extracts the contact can be indirect. Binding can be weak; no strength is given. Sequences can lack the tags named with a protein.

Target: T1, HA-SREBP2 (human) (UniProt Q12772)
T1 sequence: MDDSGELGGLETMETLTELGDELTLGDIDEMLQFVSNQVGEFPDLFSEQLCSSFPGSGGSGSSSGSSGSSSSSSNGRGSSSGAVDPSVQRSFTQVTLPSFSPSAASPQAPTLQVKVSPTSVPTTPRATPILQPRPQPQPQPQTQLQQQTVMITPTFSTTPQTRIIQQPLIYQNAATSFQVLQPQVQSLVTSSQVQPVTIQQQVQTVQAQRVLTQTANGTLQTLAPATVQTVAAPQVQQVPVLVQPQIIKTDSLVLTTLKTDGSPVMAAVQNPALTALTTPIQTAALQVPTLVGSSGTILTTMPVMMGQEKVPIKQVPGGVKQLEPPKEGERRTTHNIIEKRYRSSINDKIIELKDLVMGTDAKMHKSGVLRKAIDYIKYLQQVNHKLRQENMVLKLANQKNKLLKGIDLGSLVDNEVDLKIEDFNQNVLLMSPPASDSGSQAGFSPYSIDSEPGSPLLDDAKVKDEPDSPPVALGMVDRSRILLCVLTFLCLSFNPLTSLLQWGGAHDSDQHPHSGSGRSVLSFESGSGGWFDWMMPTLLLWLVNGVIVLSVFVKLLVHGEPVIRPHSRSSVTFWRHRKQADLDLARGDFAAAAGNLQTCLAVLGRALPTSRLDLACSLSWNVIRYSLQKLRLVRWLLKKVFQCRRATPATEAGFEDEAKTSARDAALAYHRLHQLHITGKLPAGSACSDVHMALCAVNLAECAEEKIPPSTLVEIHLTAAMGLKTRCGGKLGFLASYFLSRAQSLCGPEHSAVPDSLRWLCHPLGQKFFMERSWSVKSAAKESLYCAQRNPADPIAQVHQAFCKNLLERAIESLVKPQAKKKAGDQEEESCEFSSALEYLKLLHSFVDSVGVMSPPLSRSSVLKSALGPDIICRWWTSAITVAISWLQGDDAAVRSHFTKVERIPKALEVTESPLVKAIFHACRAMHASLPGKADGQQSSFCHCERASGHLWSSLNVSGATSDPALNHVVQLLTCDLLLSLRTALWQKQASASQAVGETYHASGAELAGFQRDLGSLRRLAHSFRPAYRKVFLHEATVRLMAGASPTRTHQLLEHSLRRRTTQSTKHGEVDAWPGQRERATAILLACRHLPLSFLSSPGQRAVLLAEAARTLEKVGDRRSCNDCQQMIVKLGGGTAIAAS
Experiment: co-IP; HepG2 cells co-transfected, lysed 24-48 h after transfection in 50 mM Tris-HCl pH 8.0, 150 mM NaCl, 1% NP-40 with protease inhibitors; lysates incubated overnight with anti-FLAG M2 or anti-HA affinity gel; immunoblot

Flag-preCore (hepatitis B virus)
binding: binds
